This note sets out measurements from publication PMC8589628, “Characterization and Antimicrobial Studies of Iturin-Like and Bogorol-Like Lipopeptides From Brevibacillus spp. Strains GI9 and SKDU10” (Frontiers in Microbiology, 2021).

The test deals with C. albicans MTCC 183. In words: MIC, microtiter plate dilution assay. It counts as cell-based. The conditions noted are these: Candida albicans, MTCC183, YMB, 5 × 10^5 CFU/ml, 37°C, OD 600 nm after 48 h. On the procedure:
The antimicrobial activity of HPLC purified compounds was determined against various test strains including S. aureus MTCC 1430, Vibrio cholera MTCC 3904, Bacillus subtilis MTCC 121, Listeria monocytogenes MTCC 839, C. albicans MTCC 183, C. albicans MTCC 1637, C. albicans MTCC 227, C. tropicalis MTCC 184, C. glabrata MTCC 3019, and C. inconspicua MTCC 1074. Antimicrobial activity was also tested against clinical Candida strains and phytopathogenic fungi viz. Fusarium moniliforme MTCC 158, Alternaria brassicicola MTCC 2102 and Colletotrichum acutatum MTCC 1037. Bacterial and Candida test strains were grown in NB and yeast malt broth (YMB), respectively. Fungal test strains were grown in potato dextrose broth (PDB). Minimum inhibitory concentrations (MICs) of purified compounds were evaluated against test organisms by using a microtiter plate dilution assay. Mid-log-phase test strains (5 × 10^5 CFU/ml) were incubated in a 96-well plate with different concentrations of the lipopeptides for 24–48 h at 37°C (final volume of 200 μl). OD was measured at 600 nm after 24 and 48 h for bacteria and yeast, respectively, using an ELISA microplate reader (Thermo Scientific, United States). MIC against phytopathogenic fungi was determined using the 96-well microtiter plate method ([Sharma et al., 2020]).

As usually defined, the MIC is the lowest concentration that inhibits growth of the organism. A higher MIC goes with a less susceptible organism.

Converted amounts (≈) assume the structure as drawn.

In turn, `OC(Cn1cncn1)(Cn1cncn1)c1ccc(F)cc1F` [Fluconazole] registered an MIC of 20 µg/mL (≈ 65.3 µM).
